Values of other authors in patent publication US6982273B1, “Compositions and methods containing bioavailable Se-methyl-L-selenocysteine for human and veterinary use” (Sami Labs Ltd., priority 2002, dated 2006).
At least one compound was matched to its structure with a doubt left.

System: macrophage induced liver injury
Conditions: rat, in vivo; cited from earlier work

O=c1c2ccccc2[se]n1-c1ccccc1 [Ebselen]
effect on macrophage induced liver injury: inhibit macrophage induced liver injury
